In article PMC6486557:
Results are given in words; binding and its absence hold for the method and conditions named. In cells and extracts the contact can be indirect. Some binding calls cover weakened binding; strength is not graded here. For some of these results: Sequences can lack the tags named with a protein.

Chains of the proteins cited; added tags and fusions are not shown.
UniProt O94874: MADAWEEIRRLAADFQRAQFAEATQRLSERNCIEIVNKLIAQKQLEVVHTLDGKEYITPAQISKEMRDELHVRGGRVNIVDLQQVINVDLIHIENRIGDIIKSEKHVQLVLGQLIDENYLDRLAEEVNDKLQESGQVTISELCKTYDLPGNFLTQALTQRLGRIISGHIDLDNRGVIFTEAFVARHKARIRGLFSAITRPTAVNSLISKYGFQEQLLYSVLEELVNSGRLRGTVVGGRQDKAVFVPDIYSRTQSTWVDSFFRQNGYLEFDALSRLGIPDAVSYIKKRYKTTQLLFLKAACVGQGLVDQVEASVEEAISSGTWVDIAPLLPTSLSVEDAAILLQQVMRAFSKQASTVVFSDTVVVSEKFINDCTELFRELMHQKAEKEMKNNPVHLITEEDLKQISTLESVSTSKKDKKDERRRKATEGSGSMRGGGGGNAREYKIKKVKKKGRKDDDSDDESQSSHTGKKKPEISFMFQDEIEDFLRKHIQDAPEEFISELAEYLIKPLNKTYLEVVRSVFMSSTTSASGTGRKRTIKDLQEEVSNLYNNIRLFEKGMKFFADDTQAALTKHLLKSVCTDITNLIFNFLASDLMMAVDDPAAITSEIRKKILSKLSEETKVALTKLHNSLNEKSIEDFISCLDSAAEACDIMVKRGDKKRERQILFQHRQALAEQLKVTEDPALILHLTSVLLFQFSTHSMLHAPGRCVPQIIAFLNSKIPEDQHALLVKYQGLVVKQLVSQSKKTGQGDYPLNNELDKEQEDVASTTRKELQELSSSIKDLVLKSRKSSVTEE
UniProt Q92878: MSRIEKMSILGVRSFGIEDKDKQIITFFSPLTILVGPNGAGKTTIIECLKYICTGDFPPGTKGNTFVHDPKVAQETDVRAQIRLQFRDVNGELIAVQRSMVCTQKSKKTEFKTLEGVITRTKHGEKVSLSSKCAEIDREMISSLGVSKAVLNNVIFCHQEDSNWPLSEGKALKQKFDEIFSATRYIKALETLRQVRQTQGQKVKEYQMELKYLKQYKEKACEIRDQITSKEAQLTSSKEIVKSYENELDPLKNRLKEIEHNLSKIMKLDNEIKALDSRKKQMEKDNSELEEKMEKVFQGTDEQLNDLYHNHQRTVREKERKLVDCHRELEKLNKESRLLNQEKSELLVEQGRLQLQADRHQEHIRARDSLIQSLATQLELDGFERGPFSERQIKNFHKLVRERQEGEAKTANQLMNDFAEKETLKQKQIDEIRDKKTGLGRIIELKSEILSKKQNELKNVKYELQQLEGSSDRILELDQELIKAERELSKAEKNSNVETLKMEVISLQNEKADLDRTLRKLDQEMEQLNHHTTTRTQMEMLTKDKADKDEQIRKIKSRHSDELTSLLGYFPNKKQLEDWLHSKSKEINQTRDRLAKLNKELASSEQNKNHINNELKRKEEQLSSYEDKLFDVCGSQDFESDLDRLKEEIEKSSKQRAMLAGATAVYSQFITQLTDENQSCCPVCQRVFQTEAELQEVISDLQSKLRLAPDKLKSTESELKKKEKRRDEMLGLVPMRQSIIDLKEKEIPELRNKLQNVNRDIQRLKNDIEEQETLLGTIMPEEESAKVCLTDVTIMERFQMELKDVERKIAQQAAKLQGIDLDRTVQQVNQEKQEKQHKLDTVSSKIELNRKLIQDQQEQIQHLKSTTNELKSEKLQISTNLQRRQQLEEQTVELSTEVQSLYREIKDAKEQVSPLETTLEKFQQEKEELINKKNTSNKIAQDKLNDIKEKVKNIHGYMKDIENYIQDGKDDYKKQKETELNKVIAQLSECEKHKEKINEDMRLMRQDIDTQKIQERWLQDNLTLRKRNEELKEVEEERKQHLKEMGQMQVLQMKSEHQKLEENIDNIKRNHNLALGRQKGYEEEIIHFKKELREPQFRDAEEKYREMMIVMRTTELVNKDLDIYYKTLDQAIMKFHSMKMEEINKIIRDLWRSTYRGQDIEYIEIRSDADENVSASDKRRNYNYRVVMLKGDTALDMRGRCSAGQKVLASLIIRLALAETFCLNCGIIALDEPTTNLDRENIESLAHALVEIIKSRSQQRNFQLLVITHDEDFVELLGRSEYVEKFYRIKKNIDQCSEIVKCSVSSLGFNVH
UniProt O60934: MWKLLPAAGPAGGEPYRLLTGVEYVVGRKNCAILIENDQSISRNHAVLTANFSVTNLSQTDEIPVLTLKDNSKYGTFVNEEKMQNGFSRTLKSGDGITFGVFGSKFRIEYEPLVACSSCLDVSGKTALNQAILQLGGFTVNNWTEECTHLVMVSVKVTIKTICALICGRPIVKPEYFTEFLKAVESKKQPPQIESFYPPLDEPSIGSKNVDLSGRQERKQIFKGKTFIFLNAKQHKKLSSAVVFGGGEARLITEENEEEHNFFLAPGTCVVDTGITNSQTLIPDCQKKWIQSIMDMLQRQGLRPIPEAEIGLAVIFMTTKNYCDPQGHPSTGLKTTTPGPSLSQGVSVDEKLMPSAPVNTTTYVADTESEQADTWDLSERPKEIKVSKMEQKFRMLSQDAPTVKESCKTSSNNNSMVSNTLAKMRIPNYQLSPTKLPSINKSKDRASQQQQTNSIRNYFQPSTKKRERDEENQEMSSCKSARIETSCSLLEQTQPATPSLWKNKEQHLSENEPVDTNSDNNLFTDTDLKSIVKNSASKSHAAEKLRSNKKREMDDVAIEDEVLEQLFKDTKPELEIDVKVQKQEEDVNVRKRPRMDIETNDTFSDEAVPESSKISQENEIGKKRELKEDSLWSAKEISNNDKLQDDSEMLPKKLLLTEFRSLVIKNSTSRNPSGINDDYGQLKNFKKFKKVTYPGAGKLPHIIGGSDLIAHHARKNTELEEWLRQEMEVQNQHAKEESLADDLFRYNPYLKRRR

Assays:
[1] = target: UFL1 (endogenous) (human (endogenous in HEK293T)) (UniProt O94874); assay: co-IP; endogenous proteins in HEK293T total cell lysates; IP with UFL1, RAD50 or NBS1 antibodies and immunoblotting; cells treated with 10 ug/ml bleomycin (time course), UFL1 or control siRNAs, or overexpressing HA-UfSP2 or HA-UfSP2(C302S)
HA-UFL1 = HA-UFL1 (UniProt O94874); assay: co-IP; epitope-tagged proteins co-expressed in HEK293T cells; total cell lysates, IP and immunoblotting; cells treated with 10 ug/ml bleomycin or 5-Gy X-ray irradiation (time courses)
HA-UfSP2 = target: T1, HA-UfSP2 (UniProt Q9NUQ7); assay: as above
T1 sequence: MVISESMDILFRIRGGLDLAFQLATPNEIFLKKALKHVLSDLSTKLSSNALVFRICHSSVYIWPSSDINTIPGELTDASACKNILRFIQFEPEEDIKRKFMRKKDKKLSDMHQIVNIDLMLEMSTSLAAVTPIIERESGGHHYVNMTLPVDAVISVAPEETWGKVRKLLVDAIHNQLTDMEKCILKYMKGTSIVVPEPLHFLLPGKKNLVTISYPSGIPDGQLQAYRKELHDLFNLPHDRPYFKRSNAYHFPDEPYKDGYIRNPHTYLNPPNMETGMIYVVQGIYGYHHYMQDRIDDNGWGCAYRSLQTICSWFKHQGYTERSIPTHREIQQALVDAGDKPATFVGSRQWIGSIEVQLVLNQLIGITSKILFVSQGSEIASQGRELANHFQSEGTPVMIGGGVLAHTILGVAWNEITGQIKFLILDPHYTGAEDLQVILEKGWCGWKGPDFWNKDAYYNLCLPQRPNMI

| Substance | binding [1] | binding (HA-UFL1) | binding (HA-UfSP2) |
| --- | --- | --- | --- |
| RAD50 (endogenous) (from UniProt Q92878 1-1312) | binds | – | – |
| NBS1 (endogenous) (from UniProt O60934 1-754) | binds | – | – |
| FLAG-NBS1 (from UniProt O60934 1-754) | – | binds | binds |
